{"sequences": {"note": "Sequences of proteins named here, by UniProt entry; tags and fusion partners are left off. A change or cut given only in a name is not applied to a line headed by its entry. Residues count along the entry.", "UniProt P11087": "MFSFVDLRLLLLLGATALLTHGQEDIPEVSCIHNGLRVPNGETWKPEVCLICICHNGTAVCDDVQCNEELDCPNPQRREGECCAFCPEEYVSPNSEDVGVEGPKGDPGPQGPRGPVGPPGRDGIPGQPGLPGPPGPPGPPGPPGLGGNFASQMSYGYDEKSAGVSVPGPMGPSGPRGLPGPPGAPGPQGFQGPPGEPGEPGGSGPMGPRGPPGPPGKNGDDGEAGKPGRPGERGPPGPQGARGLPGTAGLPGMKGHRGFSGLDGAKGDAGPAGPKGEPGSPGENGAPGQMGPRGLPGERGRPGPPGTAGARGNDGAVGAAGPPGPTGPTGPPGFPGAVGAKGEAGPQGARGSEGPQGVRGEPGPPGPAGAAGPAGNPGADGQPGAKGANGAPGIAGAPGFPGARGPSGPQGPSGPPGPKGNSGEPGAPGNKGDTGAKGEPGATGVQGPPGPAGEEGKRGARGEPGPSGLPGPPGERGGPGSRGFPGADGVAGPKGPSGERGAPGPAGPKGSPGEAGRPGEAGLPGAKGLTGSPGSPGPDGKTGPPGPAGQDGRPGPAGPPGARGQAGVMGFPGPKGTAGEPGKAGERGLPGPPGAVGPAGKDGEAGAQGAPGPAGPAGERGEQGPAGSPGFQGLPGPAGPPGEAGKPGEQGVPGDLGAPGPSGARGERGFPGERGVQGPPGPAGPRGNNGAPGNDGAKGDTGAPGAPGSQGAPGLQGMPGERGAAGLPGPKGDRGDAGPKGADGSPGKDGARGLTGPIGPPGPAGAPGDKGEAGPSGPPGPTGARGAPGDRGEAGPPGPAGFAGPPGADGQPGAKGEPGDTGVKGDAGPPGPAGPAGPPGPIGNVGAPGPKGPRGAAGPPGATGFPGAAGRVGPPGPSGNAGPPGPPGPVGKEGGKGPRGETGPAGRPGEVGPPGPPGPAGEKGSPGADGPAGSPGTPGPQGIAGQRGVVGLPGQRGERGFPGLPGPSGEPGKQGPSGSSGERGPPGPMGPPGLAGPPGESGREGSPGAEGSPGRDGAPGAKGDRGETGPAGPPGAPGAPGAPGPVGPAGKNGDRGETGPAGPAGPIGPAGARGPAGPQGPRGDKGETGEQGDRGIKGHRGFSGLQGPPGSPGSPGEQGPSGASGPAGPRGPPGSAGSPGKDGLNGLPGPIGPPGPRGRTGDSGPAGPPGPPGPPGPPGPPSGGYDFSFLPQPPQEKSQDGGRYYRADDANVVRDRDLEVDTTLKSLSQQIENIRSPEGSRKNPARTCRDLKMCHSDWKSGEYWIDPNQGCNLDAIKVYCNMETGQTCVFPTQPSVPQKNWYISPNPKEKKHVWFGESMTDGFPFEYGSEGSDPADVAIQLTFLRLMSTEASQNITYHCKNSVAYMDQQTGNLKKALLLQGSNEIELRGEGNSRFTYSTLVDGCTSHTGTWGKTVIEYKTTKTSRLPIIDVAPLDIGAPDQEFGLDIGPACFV", "UniProt Q01149": "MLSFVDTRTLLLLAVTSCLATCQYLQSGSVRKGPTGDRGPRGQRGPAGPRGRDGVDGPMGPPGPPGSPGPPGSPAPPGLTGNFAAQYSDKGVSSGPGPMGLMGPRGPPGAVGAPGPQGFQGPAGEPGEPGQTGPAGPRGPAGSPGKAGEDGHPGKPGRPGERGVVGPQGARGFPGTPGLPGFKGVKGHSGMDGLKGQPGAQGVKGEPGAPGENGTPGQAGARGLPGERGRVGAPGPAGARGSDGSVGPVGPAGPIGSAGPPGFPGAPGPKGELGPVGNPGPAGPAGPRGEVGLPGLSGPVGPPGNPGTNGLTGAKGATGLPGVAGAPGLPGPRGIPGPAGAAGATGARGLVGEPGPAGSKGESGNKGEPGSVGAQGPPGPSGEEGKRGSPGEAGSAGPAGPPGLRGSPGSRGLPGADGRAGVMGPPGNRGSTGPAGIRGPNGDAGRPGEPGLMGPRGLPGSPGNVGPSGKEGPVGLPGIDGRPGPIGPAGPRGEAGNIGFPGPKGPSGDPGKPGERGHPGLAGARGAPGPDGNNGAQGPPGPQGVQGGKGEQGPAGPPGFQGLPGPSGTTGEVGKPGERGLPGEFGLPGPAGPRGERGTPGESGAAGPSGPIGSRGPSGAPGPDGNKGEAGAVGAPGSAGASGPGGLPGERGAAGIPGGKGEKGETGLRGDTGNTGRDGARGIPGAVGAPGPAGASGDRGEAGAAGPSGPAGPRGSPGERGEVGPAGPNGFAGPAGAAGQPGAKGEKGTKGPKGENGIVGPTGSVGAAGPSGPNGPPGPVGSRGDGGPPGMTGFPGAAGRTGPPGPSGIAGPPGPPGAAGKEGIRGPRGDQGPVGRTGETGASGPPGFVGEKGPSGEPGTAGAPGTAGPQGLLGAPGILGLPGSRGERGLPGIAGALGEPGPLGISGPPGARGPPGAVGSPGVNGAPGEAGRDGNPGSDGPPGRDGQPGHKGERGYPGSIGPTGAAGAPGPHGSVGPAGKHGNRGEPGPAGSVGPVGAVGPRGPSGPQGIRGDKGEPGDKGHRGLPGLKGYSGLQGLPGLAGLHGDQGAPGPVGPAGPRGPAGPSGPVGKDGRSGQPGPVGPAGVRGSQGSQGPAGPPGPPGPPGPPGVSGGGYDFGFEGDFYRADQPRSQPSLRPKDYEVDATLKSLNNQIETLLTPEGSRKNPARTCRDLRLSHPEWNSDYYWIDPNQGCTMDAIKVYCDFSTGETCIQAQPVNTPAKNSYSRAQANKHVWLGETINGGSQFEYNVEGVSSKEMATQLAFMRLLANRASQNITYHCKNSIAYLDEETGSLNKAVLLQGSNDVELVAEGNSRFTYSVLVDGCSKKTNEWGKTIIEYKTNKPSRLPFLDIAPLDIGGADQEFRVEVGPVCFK", "UniProt P07585, residues 31-359": "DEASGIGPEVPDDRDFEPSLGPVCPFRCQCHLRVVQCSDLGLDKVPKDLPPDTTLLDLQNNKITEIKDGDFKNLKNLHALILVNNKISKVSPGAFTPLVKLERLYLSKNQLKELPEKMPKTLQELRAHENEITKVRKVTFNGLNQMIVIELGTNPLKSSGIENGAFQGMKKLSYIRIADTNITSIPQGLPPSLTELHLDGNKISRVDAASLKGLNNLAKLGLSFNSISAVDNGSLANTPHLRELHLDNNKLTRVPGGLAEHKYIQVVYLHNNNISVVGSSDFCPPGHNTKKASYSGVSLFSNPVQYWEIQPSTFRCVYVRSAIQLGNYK"}, "source": "patent US20190389943A1", "key": {"[1]": {"biological_target": "T1, Purified native mouse tendon type I collagen from wild type mice (mouse) (UniProt P11087+Q01149)", "test": "SPR (BIACore X), collagen immobilised on CM5 chip"}, "[2]": {"biological_target": "T1, Purified native mouse tendon type I collagen from wild type mice (mouse)", "test": "SPR (BIACore X), collagen immobilised on CM5 chip, decorin at 3, 5 and 12 uM"}}, "note": "These are yes or no findings as the source states them, for the method shown. Some binding calls cover weakened binding; strength is not graded here."}
{"substance": "Recombinant human decorin core protein (R&D systems) (from UniProt P07585 31-359)", "values": [{"measurement": "binding", "setting": "[1]", "result": "binds"}, {"measurement": "binding", "setting": "[2]", "result": "binds"}]}
